Test results published in patent EP4640709A1.
These are yes or no findings as the source states them, for the method shown. A result given as binding can be weak or reduced; the word gives no strength.

Legend:
[1] = biological target: hCX3CR1-1 (chimeric CX3CR1); test: flow cytometry, chimeric CX3CR1-expressing Ba/F3 cells
[2] = biological target: hCX3CR1-3 (chimeric CX3CR1); test: as above
[3] = biological target: hCX3CR1-2 (chimeric CX3CR1); test: as above
[4] = biological target: hCX3CR1-4 (chimeric CX3CR1); test: as above
[5] = biological target: mCX3CR1-1 (chimeric CX3CR1); test: as above
[6] = biological target: hCX3CR1-1 (chimeric CX3CR1); test: flow cytometry, chimeric CX3CR1-expressing Ba/F3 cells, relative to Synagis
[7] = biological target: hCX3CR1-3 (chimeric CX3CR1); test: as above
[8] = biological target: hCX3CR1-2 (chimeric CX3CR1); test: as above
[9] = biological target: hCX3CR1-4 (chimeric CX3CR1); test: as above
[10] = biological target: mCX3CR1-1 (chimeric CX3CR1); test: as above
[11] = biological target: mCX3CR1-4 (chimeric CX3CR1); test: as above
[12] = biological target: mCX3CR1-4 (chimeric CX3CR1); test: flow cytometry, chimeric CX3CR1-expressing Ba/F3 cells

binding [1] | binding [2] | binding [3] | binding [4] | binding [5] | binding [6] | binding [7] | binding [8] | binding [9] | binding [10] | binding [11] | binding [12] | Binder
binds | binds | binds | binds | binds | – | – | – | – | – | – | – | m1F8-1 antibody (antibody, V domains shown) VH: QVQLQQSGAELARPGASVKLSCKASGFTFTNYWMQWIKQRPGQGLEWIGAIYPGSGESRYTRKFKGKATLTADKSSSTAYMQLNSLASEDSAVYYCARWAGYSRNAAYWGQGTLVTVSA VL: DVLMTQTPLSLPVSLGDQASISCRSSQSIVHSSGNTYLEWYLQKPGQSPKLLIYKVSNRFSGVPDRFSGSGSGTDFTLKISRVEAEDLGVYYCFQGSHIPPTFGGGTKLEIK
– | – | – | – | – | binds | binds | binds | binds | binds | binds | – | h1F8-2-2 antibody (antibody, IgG1, V domains shown) VH: QVQLVQSGAEVKKPGSSVKVSCKASGFTFTNYWMQWIRQAPGQGLEWIGAIYPGSGESRYTRKFKGKATITADKSTSTAYMELSSLRSEDTAVYYCARWAGYSRNAAYWGQGTLVTVSS VL: DIVMTQTPLSLPVTPGEPASISCRSRQSIVHSSGNTYLEWYLQKPGQSPQLLIYKVSNRFSGVPDRFSGSGSGTDFTLKISRVEAEDVGVYYCFQGSHIPPTFGGGTKVEIK
binds | binds | binds | binds | binds | – | – | – | – | – | – | binds | m1F8-2 antibody (antibody, V domains shown) VH: QVQLQQSGAELARPGASVKLSCKASGFTFTNYWMQWIKQRPGQGLEWIGAIYPGSGESRYTRKFKGKATLTADKSSSTAYMQLNSLASEDSAVYYCARWAGYSRNAAYWGQGTLVTVSA VL: DVLMTQTPLSLPVSLGDQASISCRSRQSIVHSSGNTYLEWYLQKPGQSPKLLIYKVSNRFSGVPDRFSGSGSGTDFTLKISRVEAEDLGVYYCFQGSHIPPTFGGGTKLEIK
